## Primary screen of a compound library

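Whole-parasite assay of Trypanosoma brucei over 72 hours; the read-out is not stated. Concentration: 30 µM. Higher reads as stronger inhibition (inferred: compounds with an IC50 in retests scored well above the rest). Values scatter widely below zero; nearly all retest evidence comes from the higher of the two concentrations used. Size under these conditions: about 64,000 compounds, about 940 of them at 50% or above in at least one test.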

Results are given as percent effect. The controls that fix the scale are not given in the record; negative values are as filed. Compounds were drawn at random from those tested, without regard to their results.

Result for CC(C)COC(=O)N1CC(=O)N(Cc2ccco2)CC(O)C1 (stereo not shown) was -30.62%. CCn1cnc2c(cnn2-c2cccc(C)c2C)c1=O read -35.72%. CN(C)c1nccc(N(C)Cc2nc3ccccc3n2C)n1 read -27.58%. With Clc1snnc1CN1CCCCC1Cn1cncn1 (stereo not shown) the screen gave -35.44%.

For Cc1nnc(SCC(=O)c2cc3c(cc2Cl)NC(=O)C3)s1 the result was -36.92%. O=C(CN1CC(c2ccccc2)CC1=O)N1CCN(c2nccs2)CC1 (stereo not shown) gave -45.14%. With O=C(O)C(F)(F)F.O=C(O)C(F)(F)F.[H][C@@]12CN(Cc3csc(C)n3)CCO[C@]1([H])CN(Cc1nccs1)C2 the screen gave 45.29%. Result for Cn1cnnc1Sc1ccc(NC(=O)C2CC2)cc1Cl was -17.58%.

Result for CCCNCC1(O)CCCN(Cc2cccc(C)c2)C1=O (stereo not shown) was -43.53%. Result for CC(=O)N1CCCN(C(=O)c2ccc(Sc3ccccn3)cc2)CC1 was -10.32%. For O=C(CN1C=Nc2ccccc2S1(=O)=O)NC1CCCCC1 the result was 7.126%. For [H][C@@]12CC(=O)N(c3cnn(C)c3)[C@@]1([H])CCN2C(=O)c1ccco1 the result was -33.67%.

Result for Cc1cc(O)c(OCC(=O)/N=c2\[nH]c(C)c(C)s2)cn1 was -31.23%. O=C1CCC(C(=O)N2CCOC(Cc3ccccc3Cl)C2)=NN1 (stereo not shown) read -27.19%. Cc1cccc(C)c1NC(=O)c1cc(S(N)(=O)=O)c(C)o1 gave -12.34%. CC1c2ncc(COc3cccnc3)n2CCN1C(=O)C1=CCCC1.O=C(O)C(F)(F)F (stereo not shown) gave 37.79%.

With NS(=O)(=O)c1cnn(-c2ccc(NC(=O)C3CCCCC3)cn2)c1 the screen gave -42.26%. Cl.NC(=O)c1ccc(CNC2CC2)cc1 read -40.64%. For CCOCCN(C)C(c1cccnc1)c1ccc(F)cc1F (stereo not shown) the result was -41.66%. Result for Cc1ccc2ncnc(N3CCOCC3c3c(C)nn(C)c3C)c2c1 (stereo not shown) was -0.3513%.

CCOCC1CCN(C(=O)C(c2c(F)cccc2F)N(C)C)CC1 (stereo not shown) gave -66.44%. Cc1ccnc(C2CN(Cc3cnn(-c4ccccc4C(=O)O)c3)C2)n1 gave 0.6877%. Result for COc1cccc(S(=O)(=O)N2CCCCC2CCN2CCCC2=O)c1 (stereo not shown) was -39.18%. For O=C1CC2(CCN(C(=O)c3ccc4c(c3)CCCO4)C2)C(=O)N1 (stereo not shown) the result was -10.45%.

For NC(=O)C1CN(C(=O)Nc2ccccc2-c2cccs2)CCO1 (stereo not shown) the result was 21.05%. CN1CCC(CNC(=O)c2cccc(C(F)(F)F)c2)c2ccccc21 (stereo not shown) gave -26.33%. [H][C@@]12COC[C@]1(COCC1CC1)CN(C(=O)c1ccnnc1)C2 read 47.53%. c1ccc(OCc2noc(CN3CCN(C4CCCC4)CC3)n2)cc1 read -40.76%.

For CCN(CC1CCOC1)C(=O)c1ccccc1NS(=O)(=O)CC (stereo not shown) the result was 34.76%. With CN(C)c1cccc(C(=O)N2CCn3c(nnc3-c3ccccc3)C2)c1 the screen gave -17.64%. CSCC(=O)NC1CC(=O)N(CCc2ccccc2)C1 (stereo not shown) read -33.63%. With CCc1ccc(CN2CCC3(CC2)C(=O)N(C)CCN3CC)cc1 the screen gave -16.76%.

For O=C(NCCC(=O)N1CCCC1)c1nn(-c2ccccc2F)cc1O the result was -19.38%. CC1(Cc2ccc3c(c2)OCO3)CCCN(S(=O)(=O)N2CCCC2)C1 (stereo not shown) read 37.61%. Result for O=C(Nc1ccccc1OC(F)F)C1=NN(c2ccccc2)C(=O)CN1 was -41.26%. For CS(=O)(=O)N1CCC(CSc2ccccc2)C1 (stereo not shown) the result was 7.978%.

Result for C1=C(c2c[nH]c3ncccc23)CCN(Cc2nnc(C3CC3)o2)C1 was -26.02%. For CN1C(=O)c2cccc(NC(=O)c3cccc(S(C)(=O)=O)c3)c2C1=O the result was -0.5363%. O=C(O)C(F)(F)F.[H][C@@]12CN(Cc3cccs3)C[C@]1([H])C(=O)N(CC)C2 gave -18.39%. With CC(C)Nc1nc2c(cc1C(=O)NCC1CC1)CCNCC2.O=C(O)C(F)(F)F.O=C(O)C(F)(F)F the screen gave -26.83%.

With O=C1CCC2(CCN(Cc3ccc(F)cc3Cl)CC2)CN1CCO the screen gave 2.236%. With CC(C)c1noc(CCNC(=O)N2CCC(O)(C(F)(F)F)C2)n1 (stereo not shown) the screen gave -41.8%. For CC[C@H]1CN(C(=O)c2cccnc2)CC[C@H]1CC(=O)NCCOC the result was -13.46%. O=c1[nH]c2ccccc2c2c1CCO2 gave -22.98%.

CCNc1cc2c(nn1)CCN(C(=O)c1cc3c(s1)CCOC3)C2 read 4.306%. With CC(C)c1nccn1CCC(=O)NCC(C)(O)c1ccco1 (stereo not shown) the screen gave -8.18%. Cc1cc(C)c(C(=O)NC2CCN(c3ncccc3C#N)CC2)c(=O)[nH]1 read -7.282%.

For reference, 3 entries once more:

- Cc1cccc(C)c1NC(=O)c1cc(S(N)(=O)=O)c(C)o1 | -12.34%
- Cn1cnnc1Sc1ccc(NC(=O)C2CC2)cc1Cl | -17.58%
- O=C(Nc1ccccc1OC(F)F)C1=NN(c2ccccc2)C(=O)CN1 | -41.26%

Source: ChEMBL document CHEMBL3988442, “University of Dundee, Small-Polar-MMV Screening Library” (2021).